In the supplement of paper PMC12823440, “Inhibitors supercharge kinase turnover through native proteolytic circuits” (Nature, 2025):
The other results are listed elsewhere or left out. Hit calls seldom repeat between salt and free forms of one compound.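 In K562 cells expressing nanoluciferase-fused kinases, luminescence was recorded at 4 h intervals between 2 and 18 h, normalized as percent of control with DMSO at 100% and a positive control at 0%. A significant (2 sigma) signal drop marks a time point as decreased. The authors' rule for a hit is not shown and takes in more than the number of time points.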

By UniProt entry, the sequences of proteins in these tests, tags left out. Where a name states a change or a piece, a line headed by the entry shows the natural chain unless it says otherwise.
UniProt P21860, whole entry: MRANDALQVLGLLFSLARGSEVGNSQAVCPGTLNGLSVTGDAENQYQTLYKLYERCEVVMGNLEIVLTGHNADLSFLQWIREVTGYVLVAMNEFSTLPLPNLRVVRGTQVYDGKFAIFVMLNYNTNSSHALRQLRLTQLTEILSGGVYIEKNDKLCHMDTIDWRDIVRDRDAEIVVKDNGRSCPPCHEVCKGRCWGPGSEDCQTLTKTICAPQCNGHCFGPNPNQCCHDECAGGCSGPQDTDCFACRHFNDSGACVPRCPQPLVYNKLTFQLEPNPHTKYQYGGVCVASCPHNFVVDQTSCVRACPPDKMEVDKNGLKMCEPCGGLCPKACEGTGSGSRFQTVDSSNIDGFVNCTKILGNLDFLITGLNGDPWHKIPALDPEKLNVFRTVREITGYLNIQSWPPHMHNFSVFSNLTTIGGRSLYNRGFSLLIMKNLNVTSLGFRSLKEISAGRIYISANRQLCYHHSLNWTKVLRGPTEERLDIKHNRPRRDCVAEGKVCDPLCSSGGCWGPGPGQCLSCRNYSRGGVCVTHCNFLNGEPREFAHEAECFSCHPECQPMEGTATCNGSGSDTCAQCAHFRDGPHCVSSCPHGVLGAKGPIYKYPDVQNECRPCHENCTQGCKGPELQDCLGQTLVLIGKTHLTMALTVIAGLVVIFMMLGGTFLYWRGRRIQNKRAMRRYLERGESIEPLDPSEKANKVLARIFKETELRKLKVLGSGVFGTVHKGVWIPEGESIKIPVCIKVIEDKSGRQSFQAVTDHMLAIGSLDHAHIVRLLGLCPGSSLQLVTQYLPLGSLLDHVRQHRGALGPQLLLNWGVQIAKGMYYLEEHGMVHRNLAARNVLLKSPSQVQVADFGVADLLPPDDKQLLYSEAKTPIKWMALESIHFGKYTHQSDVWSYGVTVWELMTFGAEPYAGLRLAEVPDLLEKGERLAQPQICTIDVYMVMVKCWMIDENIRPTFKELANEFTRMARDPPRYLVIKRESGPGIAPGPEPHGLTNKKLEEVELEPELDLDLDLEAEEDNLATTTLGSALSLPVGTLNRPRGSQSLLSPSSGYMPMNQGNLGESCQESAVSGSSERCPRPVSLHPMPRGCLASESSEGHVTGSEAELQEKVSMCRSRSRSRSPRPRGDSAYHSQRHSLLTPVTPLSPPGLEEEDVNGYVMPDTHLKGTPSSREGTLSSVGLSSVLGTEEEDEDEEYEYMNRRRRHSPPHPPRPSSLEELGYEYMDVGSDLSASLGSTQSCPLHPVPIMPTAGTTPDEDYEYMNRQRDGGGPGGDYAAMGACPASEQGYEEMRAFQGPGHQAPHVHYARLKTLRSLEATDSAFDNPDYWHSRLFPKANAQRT
UniProt P11362, whole entry, looked up: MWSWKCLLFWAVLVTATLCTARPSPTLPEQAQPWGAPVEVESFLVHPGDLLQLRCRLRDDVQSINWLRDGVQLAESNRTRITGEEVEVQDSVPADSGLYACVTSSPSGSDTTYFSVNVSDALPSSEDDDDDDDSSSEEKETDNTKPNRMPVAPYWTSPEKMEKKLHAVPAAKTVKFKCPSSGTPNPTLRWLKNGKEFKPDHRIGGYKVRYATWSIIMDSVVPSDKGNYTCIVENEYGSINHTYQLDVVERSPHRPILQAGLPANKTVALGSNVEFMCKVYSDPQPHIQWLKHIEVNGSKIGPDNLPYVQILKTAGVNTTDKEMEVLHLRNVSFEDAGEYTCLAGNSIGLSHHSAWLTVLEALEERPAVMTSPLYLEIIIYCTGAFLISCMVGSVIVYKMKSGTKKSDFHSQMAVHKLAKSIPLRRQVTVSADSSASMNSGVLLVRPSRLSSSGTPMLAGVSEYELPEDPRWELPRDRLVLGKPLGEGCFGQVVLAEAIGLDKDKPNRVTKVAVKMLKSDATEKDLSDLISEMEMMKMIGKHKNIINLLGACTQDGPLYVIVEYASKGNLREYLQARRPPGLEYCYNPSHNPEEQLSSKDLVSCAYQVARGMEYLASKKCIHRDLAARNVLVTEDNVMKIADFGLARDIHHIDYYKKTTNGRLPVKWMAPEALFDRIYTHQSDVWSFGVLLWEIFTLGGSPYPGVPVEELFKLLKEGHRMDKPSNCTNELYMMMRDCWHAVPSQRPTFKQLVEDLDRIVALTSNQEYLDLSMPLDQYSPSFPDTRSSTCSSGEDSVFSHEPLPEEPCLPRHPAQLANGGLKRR
UniProt P21802, whole entry, looked up: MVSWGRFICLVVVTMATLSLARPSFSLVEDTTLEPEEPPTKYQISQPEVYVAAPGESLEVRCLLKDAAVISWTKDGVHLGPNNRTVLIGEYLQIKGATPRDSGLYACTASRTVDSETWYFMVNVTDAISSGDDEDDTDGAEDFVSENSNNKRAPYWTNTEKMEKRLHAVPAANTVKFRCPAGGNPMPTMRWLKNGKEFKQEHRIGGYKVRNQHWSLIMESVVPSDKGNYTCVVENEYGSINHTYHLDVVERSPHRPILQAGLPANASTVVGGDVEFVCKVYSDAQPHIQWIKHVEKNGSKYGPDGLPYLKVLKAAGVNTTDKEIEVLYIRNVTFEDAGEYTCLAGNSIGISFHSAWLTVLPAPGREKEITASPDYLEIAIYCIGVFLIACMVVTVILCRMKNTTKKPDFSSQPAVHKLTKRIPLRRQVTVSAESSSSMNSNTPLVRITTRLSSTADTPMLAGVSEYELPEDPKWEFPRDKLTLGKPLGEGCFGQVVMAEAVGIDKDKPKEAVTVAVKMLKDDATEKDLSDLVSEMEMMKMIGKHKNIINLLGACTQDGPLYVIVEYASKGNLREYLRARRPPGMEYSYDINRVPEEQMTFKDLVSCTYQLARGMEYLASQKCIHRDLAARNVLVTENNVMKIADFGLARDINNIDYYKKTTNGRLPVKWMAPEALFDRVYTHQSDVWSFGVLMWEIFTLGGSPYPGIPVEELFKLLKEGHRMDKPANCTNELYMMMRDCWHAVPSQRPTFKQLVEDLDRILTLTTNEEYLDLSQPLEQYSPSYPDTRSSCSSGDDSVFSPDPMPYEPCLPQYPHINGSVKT
UniProt Q9Y616: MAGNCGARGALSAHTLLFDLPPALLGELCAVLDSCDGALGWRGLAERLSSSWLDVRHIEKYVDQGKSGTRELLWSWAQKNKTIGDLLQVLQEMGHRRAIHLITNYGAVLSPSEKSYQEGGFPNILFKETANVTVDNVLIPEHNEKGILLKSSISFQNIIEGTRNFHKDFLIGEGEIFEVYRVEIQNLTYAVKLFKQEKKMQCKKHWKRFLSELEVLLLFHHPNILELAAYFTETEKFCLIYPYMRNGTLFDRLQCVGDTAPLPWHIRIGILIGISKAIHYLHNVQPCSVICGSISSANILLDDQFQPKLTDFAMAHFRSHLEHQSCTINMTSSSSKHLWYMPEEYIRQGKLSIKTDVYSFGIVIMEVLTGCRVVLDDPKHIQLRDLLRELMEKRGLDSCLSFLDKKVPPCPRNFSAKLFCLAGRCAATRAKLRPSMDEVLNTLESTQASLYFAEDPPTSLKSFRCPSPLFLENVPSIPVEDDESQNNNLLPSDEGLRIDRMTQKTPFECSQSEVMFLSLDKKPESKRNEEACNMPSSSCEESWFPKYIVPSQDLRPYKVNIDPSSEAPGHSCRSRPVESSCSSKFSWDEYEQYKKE
UniProt P23458: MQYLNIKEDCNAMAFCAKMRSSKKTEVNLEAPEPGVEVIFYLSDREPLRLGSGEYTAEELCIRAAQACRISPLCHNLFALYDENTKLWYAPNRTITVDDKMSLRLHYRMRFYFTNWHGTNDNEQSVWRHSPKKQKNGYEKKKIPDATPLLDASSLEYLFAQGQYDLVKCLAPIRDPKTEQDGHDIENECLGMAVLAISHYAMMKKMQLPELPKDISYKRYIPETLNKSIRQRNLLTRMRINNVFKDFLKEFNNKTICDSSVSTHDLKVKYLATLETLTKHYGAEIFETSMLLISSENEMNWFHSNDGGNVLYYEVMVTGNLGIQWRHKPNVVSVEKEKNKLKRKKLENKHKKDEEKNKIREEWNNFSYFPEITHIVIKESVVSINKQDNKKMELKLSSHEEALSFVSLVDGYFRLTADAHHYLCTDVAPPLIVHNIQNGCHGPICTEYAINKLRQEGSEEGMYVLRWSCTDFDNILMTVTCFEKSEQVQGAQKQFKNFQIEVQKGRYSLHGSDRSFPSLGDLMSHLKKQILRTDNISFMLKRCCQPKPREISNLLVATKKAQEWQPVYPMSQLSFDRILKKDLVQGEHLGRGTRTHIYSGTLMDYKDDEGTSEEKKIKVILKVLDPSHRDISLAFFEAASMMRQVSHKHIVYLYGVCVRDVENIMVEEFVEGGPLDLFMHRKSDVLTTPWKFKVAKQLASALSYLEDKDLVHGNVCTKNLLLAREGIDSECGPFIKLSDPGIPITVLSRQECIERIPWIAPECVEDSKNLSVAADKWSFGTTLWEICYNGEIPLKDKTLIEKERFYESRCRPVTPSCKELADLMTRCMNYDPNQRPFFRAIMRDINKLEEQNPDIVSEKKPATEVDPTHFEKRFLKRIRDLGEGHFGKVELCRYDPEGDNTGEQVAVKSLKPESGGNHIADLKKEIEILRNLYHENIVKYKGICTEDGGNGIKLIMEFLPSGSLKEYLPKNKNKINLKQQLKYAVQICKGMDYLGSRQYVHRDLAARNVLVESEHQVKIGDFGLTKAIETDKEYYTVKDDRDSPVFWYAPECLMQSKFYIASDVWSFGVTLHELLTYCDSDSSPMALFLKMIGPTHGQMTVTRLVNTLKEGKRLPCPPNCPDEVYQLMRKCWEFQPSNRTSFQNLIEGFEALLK
UniProt P53667: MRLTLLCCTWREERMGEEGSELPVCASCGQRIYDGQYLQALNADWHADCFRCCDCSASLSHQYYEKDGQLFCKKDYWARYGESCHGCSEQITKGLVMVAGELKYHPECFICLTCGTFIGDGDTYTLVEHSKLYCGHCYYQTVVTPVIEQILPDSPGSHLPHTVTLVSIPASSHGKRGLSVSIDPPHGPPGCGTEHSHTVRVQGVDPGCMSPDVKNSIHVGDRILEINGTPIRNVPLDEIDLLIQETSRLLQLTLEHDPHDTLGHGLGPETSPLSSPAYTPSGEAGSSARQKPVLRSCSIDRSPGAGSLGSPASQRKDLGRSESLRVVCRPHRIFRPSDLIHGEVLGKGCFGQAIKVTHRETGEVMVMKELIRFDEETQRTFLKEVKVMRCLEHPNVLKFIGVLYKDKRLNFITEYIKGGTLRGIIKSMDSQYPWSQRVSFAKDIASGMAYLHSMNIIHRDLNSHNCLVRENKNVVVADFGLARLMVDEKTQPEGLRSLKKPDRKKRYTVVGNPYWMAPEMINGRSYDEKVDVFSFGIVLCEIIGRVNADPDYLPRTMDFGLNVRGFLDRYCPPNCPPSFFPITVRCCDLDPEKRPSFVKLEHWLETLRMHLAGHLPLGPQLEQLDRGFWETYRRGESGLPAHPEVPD
UniProt O75460: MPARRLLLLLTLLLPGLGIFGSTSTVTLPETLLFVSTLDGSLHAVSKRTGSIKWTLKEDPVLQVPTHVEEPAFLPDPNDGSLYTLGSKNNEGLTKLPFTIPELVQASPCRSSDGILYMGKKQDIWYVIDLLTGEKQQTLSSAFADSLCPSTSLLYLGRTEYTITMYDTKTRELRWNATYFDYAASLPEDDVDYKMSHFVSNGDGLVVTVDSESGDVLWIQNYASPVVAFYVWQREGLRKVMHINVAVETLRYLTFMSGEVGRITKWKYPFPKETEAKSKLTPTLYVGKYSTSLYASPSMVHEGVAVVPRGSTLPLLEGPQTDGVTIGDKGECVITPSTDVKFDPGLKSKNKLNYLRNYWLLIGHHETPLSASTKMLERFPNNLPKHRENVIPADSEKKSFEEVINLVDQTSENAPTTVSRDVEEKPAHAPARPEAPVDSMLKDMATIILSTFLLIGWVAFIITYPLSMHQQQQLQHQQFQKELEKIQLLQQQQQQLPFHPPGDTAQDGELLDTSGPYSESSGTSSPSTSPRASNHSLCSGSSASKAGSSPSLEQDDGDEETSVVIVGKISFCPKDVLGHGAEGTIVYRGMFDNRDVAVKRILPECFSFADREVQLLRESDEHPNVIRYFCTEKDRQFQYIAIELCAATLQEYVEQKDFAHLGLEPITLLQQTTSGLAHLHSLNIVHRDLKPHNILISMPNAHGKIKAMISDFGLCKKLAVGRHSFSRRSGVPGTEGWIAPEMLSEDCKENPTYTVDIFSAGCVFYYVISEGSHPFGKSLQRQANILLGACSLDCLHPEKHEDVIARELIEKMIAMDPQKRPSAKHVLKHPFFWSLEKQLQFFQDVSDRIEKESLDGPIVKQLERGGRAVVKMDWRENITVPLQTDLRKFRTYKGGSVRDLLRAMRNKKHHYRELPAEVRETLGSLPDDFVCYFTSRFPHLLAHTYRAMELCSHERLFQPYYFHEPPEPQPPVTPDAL

Experiments:
Experiment in all cases: number of time points (of 5) at which kinase-Nluc abundance scored as decreased, DMSO-normalised (count); higher = more persistent destabilization
Settings in all cases: K562; 2-18 h
EGFR_L861Q = EGFR_L861Q (UniProt P00533)
EGFR_T790M = EGFR_T790M (UniProt P00533)
EPHA2 = EPHA2 (UniProt P29317)
ERBB3 = ERBB3 (UniProt P21860)
[1] = target: ERBB4_R711C (clone: ERBB4_mut) (UniProt Q15303)
FGFR1 = FGFR1 (UniProt P11362)
FGFR2 = FGFR2 (UniProt P21802)
FGFR3 = FGFR3 (UniProt P22607)
FGR = FGR (UniProt P09769)
FLT3 = FLT3 (UniProt P36888)
FYN = FYN (UniProt P06241)
GSK3A = GSK3A (UniProt P49840)
HER2 = HER2 (UniProt P04626)
INSRR = INSRR (UniProt P14616)
IRAK3 = IRAK3 (UniProt Q9Y616)
JAK1 = JAK1 (UniProt P23458)
LCK = LCK (UniProt P06239)
LIMK1 = LIMK1 (UniProt P53667)
LIMK2 = LIMK2 (UniProt P53671)
ERN1 = ERN1 (UniProt O75460)

SMILES | number of time points (EGFR_L861Q) | number of time points (EGFR_T790M) | number of time points (EPHA2) | number of time points (ERBB3) | number of time points [1] | number of time points (FGFR1) | number of time points (FGFR2) | number of time points (FGFR3) | number of time points (FGR) | number of time points (FLT3) | number of time points (FYN) | number of time points (GSK3A) | number of time points (HER2) | number of time points (INSRR) | number of time points (IRAK3) | number of time points (JAK1) | number of time points (LCK) | number of time points (LIMK1) | number of time points (LIMK2) | number of time points (ERN1)
CN1CCN(C(=O)c2ccc(-c3ccc4c(C=O)c(O)ccc4c3)s2)CC1 (2.5 µM) | 0 | 0 | 0 | 0 | 0 | 0 | 0 | 0 | 0 | 0 | 0 | 0 | 0 | 0 | 0 | 0 | 0 | 0 | 0 | –
CCn1cc(-c2ccnc3[nH]c(-c4cccc(CN(C)C)c4)cc23)c(-c2ccc(NC(=O)N(C)C)cc2)n1 (2.5 µM) | 0 | 0 | 0 | 0 | 0 | – | 0 | 0 | 0 | 0 | 0 | 0 | 0 | 0 | 0 | 0 | 0 | 0 | 0 | 0
CC(C)n1cnc2c(NCc3cccc(C(F)(F)F)c3)ncnc21 [Longdaysin] (10 µM) | 0 | – | 0 | 0 | 0 | 0 | 0 | 0 | 0 | 0 | 0 | 0 | 0 | 0 | 0 | 0 | 0 | 0 | 0 | 0
O=c1oc2c(C3OCCCO3)c(O)ccc2c2c1CNCC2 (10 µM) | 0 | 0 | 0 | 0 | 0 | 0 | 0 | 0 | 0 | 0 | 0 | 0 | 0 | 0 | 0 | 0 | 0 | 0 | 0 | –
O=C1Cc2c([nH]c3ccc(Br)cc23)-c2ncccc2N1 [1-Azakenpaullone] (10 µM) | – | – | 0 | 0 | 0 | 0 | 0 | 0 | 0 | 0 | 0 | 0 | 0 | 0 | 0 | 0 | 0 | 0 | 0 | 0
C=CC(=O)Nc1cccc(Nc2nc(Nc3ccc(OCCOC)cc3)ncc2F)c1 [Spebrutinib] (10 µM) | 0 | 0 | 0 | 0 | 0 | 0 | 0 | 0 | 0 | 0 | 0 | 0 | 1 | 0 | 1 | 0 | 0 | 0 | 0 | –
Cc1ccc(S(=O)(=O)Nc2nc3ccccc3nc2Nc2ccc3nsnc3c2)cc1 [Pilaralisib analogue] (10 µM) | 0 | – | 0 | 5 | 5 | 0 | 0 | 0 | 0 | 5 | 0 | 0 | 1 | 4 | 4 | 4 | 1 | – | 0 | 1
CCCCOc1c(C(=O)c2c(F)cc(C)cc2F)c[nH]c2nncc1-2 (10 µM) | 0 | – | 0 | 0 | 0 | 0 | 0 | 0 | 0 | 0 | 0 | 0 | 0 | 0 | 0 | 0 | 0 | 0 | 0 | 0
CCN1C(=O)N(c2c(F)c(OC)cc(OC)c2F)Cc2cnc3[nH]c(CN4CCOCC4)cc3c21 [Pemigatinib] (10 µM) | 0 | 0 | 0 | 0 | 0 | – | – | 0 | 0 | 0 | 0 | 0 | 0 | 0 | 0 | 0 | 0 | 0 | 0 | 0
CN1CCN(C2CCN(C(=O)Nc3cc(Oc4ccc(NC(=O)C5(C(=O)Nc6ccc(F)cc6)CC5)c(F)c4)ccn3)CC2)CC1 [Golvatinib] (2.5 µM) | 2 | 0 | – | 2 | 0 | 0 | 3 | 0 | 0 | 0 | 1 | 0 | 0 | 2 | 0 | 0 | 0 | 0 | 0 | 0
C=CC(=O)N1CC[C@H](n2nc(C#Cc3cc(OC)cc(OC)c3)c3c(N)ncnc32)C1 [Futibatinib] (10 µM) | 0 | 0 | 0 | 0 | 0 | 0 | – | 0 | 0 | 0 | 0 | 0 | 0 | 0 | 0 | 0 | 0 | 0 | 0 | 0
COc1cc(OC)cc(N(CCNC(C)C)c2ccc3ncc(-c4cnn(C)c4)nc3c2)c1 [Erdafitinib] (2.5 µM) | 0 | 0 | 0 | 0 | 0 | – | – | – | 0 | – | 0 | 0 | 0 | 0 | 0 | 0 | 0 | 0 | 0 | 0
FC(F)(F)c1ccc(CNc2ccc(Cc3c[nH]c4ncc(Cl)cc34)cn2)cc1 (10 µM) | 0 | – | 0 | 0 | 0 | 0 | 0 | 0 | 0 | 0 | 0 | 0 | 0 | 0 | 0 | 0 | 0 | 0 | 0 | 0
C=CC(=O)N1CCN(CCCn2c(=O)c(-c3c(Cl)c(OC)cc(OC)c3Cl)cc3cnc(NC)nc32)CC1 (10 µM) | 0 | 0 | 0 | 0 | 0 | – | – | 0 | 0 | 0 | 4 | 0 | 0 | 0 | 0 | 0 | 0 | 0 | 0 | 0
COCCNCCc1cccc(Nc2ncc3c(n2)-c2ccccc2[C@H](c2ccccc2F)C3)c1 [Derazantinib] (2.5 µM) | 0 | 0 | 0 | 0 | 0 | – | 0 | 0 | 0 | 0 | 0 | 0 | 0 | 0 | 0 | 0 | 0 | 0 | 0 | 0
CCC(=O)N1CCN(c2ccc(-n3c(=O)ccc4cnc5ccc(-c6cnc7ccccc7c6)cc5c43)cc2C(F)(F)F)CC1 [Torin 1] (2 µM) | 0 | – | 0 | 0 | 0 | 4 | 5 | 0 | 0 | 0 | 0 | 0 | 0 | 0 | 0 | 0 | 0 | 0 | 0 | 0
Oc1ccc(-c2nc(-c3ccc(F)cc3)c(-c3ccncc3)[nH]2)cc1 (2.5 µM) | – | – | 0 | 0 | 0 | 0 | 0 | 0 | 0 | 0 | 0 | 0 | 0 | 0 | 0 | 0 | 0 | 0 | 0 | 0
COc1cc(CCc2cc(-c3nc4ccc(N5CCN(C)CC5)cc4[nH]3)n[nH]2)cc(OC)c1 (10 µM) | 3 | 0 | 0 | 5 | 3 | – | 3 | – | 0 | – | 3 | 0 | 0 | 4 | 0 | 2 | 0 | 3 | 2 | 0
COc1c(CC=C(C)C)c(O)cc2oc(=O)c(-c3ccc(O)cc3O)cc12 [Glycycoumarin] (10 µM) | 0 | – | 0 | 0 | 0 | 0 | 0 | 0 | 0 | 0 | 0 | 0 | 0 | 0 | 0 | 0 | 0 | 0 | 0 | 0
CCN(CC)CCCCNc1ncc2cc(-c3c(Cl)cccc3Cl)c(NC(=O)NC(C)(C)C)nc2n1 (2.5 µM) | – | – | 0 | 0 | 0 | 0 | 4 | 0 | 0 | 0 | 0 | 1 | 2 | 0 | 0 | 0 | 0 | 4 | 2 | 0
CC(C)=CC/C=C(\C)[C@H]1CC[C@]2(C)[C@@H]1[C@H](O)C[C@@H]1[C@@]3(C)CC[C@H](O[C@@H]4O[C@H](CO)[C@@H](O)[C@H](O)[C@H]4O[C@@H]4O[C@H](CO)[C@@H](O)[C@H](O)[C@H]4O)C(C)(C)[C@@H]3CC[C@]12C [Ginsenoside Rg5] (10 µM) | 0 | 0 | 0 | 0 | 0 | 0 | 0 | 0 | 0 | 0 | 0 | 0 | 0 | 0 | 0 | 0 | 0 | 0 | 0 | –
O=C1NCCc2[nH]c(-c3ccnc(-c4cnc5ccccc5c4)c3)cc21 (10 µM) | – | – | 0 | 0 | 0 | 0 | 0 | 0 | 0 | 0 | 0 | 0 | 0 | 0 | 0 | 0 | 0 | 0 | 0 | 0

Given comma-delimited: 4 of the compounds above.
SMILES,number of time points (EGFR_L861Q),number of time points (EGFR_T790M),number of time points (EPHA2),number of time points (ERBB3),number of time points [1],number of time points (FGFR1),number of time points (FGFR2),number of time points (FGFR3),number of time points (FGR),number of time points (FLT3),number of time points (FYN),number of time points (GSK3A),number of time points (HER2),number of time points (INSRR),number of time points (IRAK3),number of time points (JAK1),number of time points (LCK),number of time points (LIMK1),number of time points (LIMK2),number of time points (ERN1)
CCN1C(=O)N(c2c(F)c(OC)cc(OC)c2F)Cc2cnc3[nH]c(CN4CCOCC4)cc3c21 [Pemigatinib] (10 µM),0,0,0,0,0,–,–,0,0,0,0,0,0,0,0,0,0,0,0,0
C=CC(=O)N1CCN(CCCn2c(=O)c(-c3c(Cl)c(OC)cc(OC)c3Cl)cc3cnc(NC)nc32)CC1 (10 µM),0,0,0,0,0,–,–,0,0,0,4,0,0,0,0,0,0,0,0,0
COCCNCCc1cccc(Nc2ncc3c(n2)-c2ccccc2[C@H](c2ccccc2F)C3)c1 [Derazantinib] (2.5 µM),0,0,0,0,0,–,0,0,0,0,0,0,0,0,0,0,0,0,0,0
Oc1ccc(-c2nc(-c3ccc(F)cc3)c(-c3ccncc3)[nH]2)cc1 (2.5 µM),–,–,0,0,0,0,0,0,0,0,0,0,0,0,0,0,0,0,0,0
